# Laboratory results reported in PMC10747430 (Pharmaceutics, 2023).
# Assay: peptide made by a vendor
substance,measurement,value
cyclo(Trp-Ser-Trp-Leu-Leu-Lys-Cys-Tyr-Ala-Asn-Pro-His-Leu-Pro),purity (crude or final not stated),97%
